# In PubChem BioAssay AID2685 (National Center for Advancing Translational Sciences (NCATS), 2010):
# In all, about 320,000 compounds went through this assay and about 2,100 (0.66%) were called active. The shares of active, inactive and inconclusive entries below differ from those in the screen. Calls follow the shape of the dose curve; as a rule, active = well fitted inhibition curve with a large enough effect in the signal ratio, with a control signal flat (not every such curve was filed as active); inconclusive = small, poorly fitted or top-dose-only effect, or effect the other way, or a change in a side signal; inactive = flat fitted curve, though single readings scatter; the % refers to the signal ratio. Where the call is inconclusive, the potency comes from a doubtful curve fit.
# Assay: qHTS Assay for Lipid Storage Modulators in Drosophila S3 Cells
# Conditions: BODIPY lipid droplet fluorescence, 18-24 h, cells fed with added oleic acid; lipid storage change, negative = inhibition: at 46.1 µM (top of the series) unless noted
# Outline: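 Laser-scanning cytometry quantifies lipid droplet accumulation (500–530 nm total intensity; droplet/cell object ratio) in oleic acid-fed (400 uM added) Drosophila S3 cells treated with a concentration series. 20 uM Triacsin C defined 100% inhibition.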
# % is scaled to controls: 0 for no effect and ±100 for the full control effect; potency is read from the fitted curve at half-maximal effect.
SMILES,"lipid storage change, negative = inhibition",Potency
CCOc1ccc(CNC(=O)CCS(=O)(=O)Cc2ccccc2C)cc1OC,inconclusive: -0.38%,
CSc1nnc(N2C(=O)C(O)=C(C(=O)c3ccco3)C2c2cccc(Cl)c2)s1 (configuration not stated),inactive,
COc1cccc(OC)c1C(=O)OCCCOC(=O)c1c(OC)cccc1OC,,"inconclusive: 0.291 µM [activator, full curve, poor fit]"
Cc1ccc(NS(=O)(=O)c2c(C)ccc3nsnc23)c([N+](=O)[O-])c1,inconclusive: -23.6%,
CCOC(=O)Cc1nc(-c2ccccc2)n[nH]1,inconclusive: -6.37%,
COc1ccc(/C=N/NC(=O)c2cc(C34CC5CC(CC(C5)C3)C4)[nH]n2)cc1O,inconclusive: -56.7%,
Cc1cc(C)c(S(=O)(=O)N(C)c2ccccc2)c(C)c1,inactive,
Cc1cccc(N=Nc2c(O)[nH]c3ccc(Br)cc23)c1,,"inconclusive: 29.1 µM [falling, single point]"
NC(=S)N=Nc1c(O)n(C2OC(=O)c3ccccc32)c2ccccc12 (configuration not stated),,"inconclusive: 0.517 µM [activator, single point]"
O=C(Cc1ccc(-c2ccccc2)cc1)NC1CCCC1,inconclusive: 50.2%,
O=C(CN1CCCC1)NC12CC3CC(CC(C3)C1)C2,inconclusive: 8.25%,
COc1ccc2nc(-c3ccccc3)nc(C3CCCCC3)c2c1,inconclusive: 15.4%,
CCCCN(C)C(=O)CCCCn1c(=O)[nH]c2cc(OCC)c(OCC)cc2c1=O,inconclusive: -22%,
Oc1ccccc1N1CCN(CC(O)COCc2ccccc2Cl)CC1 (configuration not stated),inconclusive: 43.8%,
COc1nnc(-c2ccc(C)c(S(=O)(=O)NC(C)C)c2)c2ccccc12,inconclusive: -22.2%,
CS(=O)(=O)Nc1cccc(-c2cn3c(n2)SCC3)c1,,"inconclusive: 20.6 µM [activator, single point]"
Cc1cc(NC(=O)c2ccc(C)c([N+](=O)[O-])c2)no1,inactive,
CC(C)Cc1nc(N2CCN(C(=O)C(C)C)CC2)c(C#N)c2c1CCC2,inconclusive: -14.3%,
CC(=O)c1ccc(Oc2cnccn2)cc1,inconclusive: 11.7%,
O=Cc1c(Cl)cccc1Cl,,"inconclusive: 1.16 µM [activator, single point]"
COc1ccc(-n2c(SCC#N)nc3ccccc3c2=O)cc1,,"inconclusive: 29.1 µM [activator, single point]"
N#C/C(=C\c1ccc(OCc2ccccc2)cc1)C(=O)Nc1nc2c(s1)CCN(Cc1ccccc1)C2,inconclusive: 46.9%,
COc1ccc(S(=O)(=O)N(C)CC(=O)NCc2ccco2)cc1OC,inconclusive: -78%,
O=C(c1ccccc1)N(Cc1ccc(F)cc1)Cc1nc2ccccc2c(=O)[nH]1,inactive,
O=C(Nc1ccccc1)C1CC2CCC1C2 (configuration not stated),inconclusive: 4.08%,
O=C(O)c1cccc(NC(=O)c2ccc(N3C(=O)c4ccc(C(=O)Nc5cccc(C(=O)O)c5)cc4C3=O)cc2)c1,inconclusive: -60%,

SMILES,"lipid storage change, negative = inhibition",Potency
Cc1nc(C)c(C(=O)Nc2cccc(F)c2)s1,inconclusive: 1.61%,
O=C(Nc1ccc(F)cc1)C(Sc1nc2ccccc2[nH]1)c1ccccc1 (configuration not stated),inconclusive: 19.8%,
COc1ccc(NC(=O)C#Cc2ccccc2)cc1,,active: 0.92 µM
Cc1cc(C)cc(C(=O)Nc2ccc(N3CCCC3)cc2)c1,inconclusive: 9.69%,
CN(c1ccccc1)S(=O)(=O)c1cccc(C(=O)NC2CCCCC2)c1,inconclusive: -17%,
C=CCn1c(NC(=O)c2ccccc2Cl)c(C#N)c2nc3ccccc3nc21,,"inconclusive: 29.1 µM [falling, single point]"
CCN(CC)S(=O)(=O)c1cc(NC(=O)CSc2nc3c(cc2C#N)C(=O)CC(C)(C)C3)ccc1C,inconclusive: -44.2%,
COc1cc(/C=C\C(=O)Nc2cc(=O)n(C)c(=O)n2C)cc(OC)c1OC,inconclusive: -26.3%,
Cc1ccnc(NC(=O)COc2ccc3c(c2)CCC3)c1,inconclusive: 14.2%,
O=C(Nc1ccc2sccc2c1)c1ccc(Cl)s1,inconclusive: -23.6%,
O=C(NCCc1c[nH]c2ccccc12)c1ccc2c(c1)OCO2,inconclusive: -65.5%,
CCN1CCN(S(=O)(=O)c2ccc(Cl)c(C(=O)Nc3ccccc3N3CCCC3)c2)CC1,inconclusive: 15.3%,
C/C(=N\NC(=O)c1ccc(NS(=O)(=O)c2cccs2)cc1)c1ccccc1,,"inconclusive: 29.1 µM [rising, partial curve]"
CC1(C)ON(C2CCCCC2)[C@H]2c3nc4ccccc4n3C[C@H]21,inconclusive: 14%,
Cc1nnc2n1NC(c1ccc(Cl)cc1)C(C(=O)N(C)C1CCCCC1)S2 (configuration not stated),inconclusive: 16.5%,
C[C@@H](NC(=O)c1nc[nH]c1C(=O)NC1CCN(C(=O)OC(C)(C)C)CC1)c1ccccc1,,"inconclusive: 4.11 µM [activator, single point]"
O=C(CSCc1ccc(Cl)cc1)N/N=C/c1c(Cl)cccc1Cl,,"inconclusive: 29.1 µM [falling, single point]"
CCCn1c(C)nc2cc(Cl)c(N3CCN(c4nc(-c5ccc(C)cc5)cs4)CC3)cc21,inconclusive: 56.2%,
CCOC(=O)CN(C)C(=O)CCc1nnc(-c2ccc(-c3ccccc3)cc2)o1,inconclusive: -58.3%,
Cc1ccc(C(=S)N2CCCCCC2)cc1,,"inconclusive: 6.51 µM [activator, single point]"
N/C(=N\OC(=O)Cc1ccc(-c2ccccc2)cc1)c1cccc([N+](=O)[O-])c1,inconclusive: 39.2%,
CCOc1ccc(NC(=O)C2CC(=O)NC(N3CCc4ccccc43)=N2)cc1 (configuration not stated),inconclusive: 123%,
O=C(CNC(=O)CNC(=O)c1ccc(Cl)cc1Cl)NCc1cccc(Cl)c1,inconclusive: 94.7%,
O=C(O)C1CCC(c2ccc(-c3ccccc3)cc2)CC1 (configuration not stated),,"inconclusive: 18.4 µM [activator, single point]"
Cc1ccc(-c2nc3ccccc3c(=O)n2NC(=O)c2cccs2)cc1,inconclusive: -73.4%,
Nn1cc(-c2ccccc2)nc1SCC(=O)Nc1ccc(S(N)(=O)=O)cc1,inconclusive: 5.8%,

SMILES,"lipid storage change, negative = inhibition",Potency
Cc1cc(C)c2c(N)c(C(=O)Nc3ccccc3Br)sc2n1,inconclusive: -29.7%,
C=CCn1c(SCC(=O)N2CCc3ccccc3C2)nnc1-c1ccncc1,,"inconclusive: 2.91 µM [activator, full curve]"
CC(=O)Nc1sc(C)c(C)c1C(=O)OCC(=O)NCc1ccc(F)cc1,,"inconclusive: 29.1 µM [activator, single point]"
CC(=O)NC12CC3CC(C1)CC(C(=O)OCC(=O)Nc1c(F)cccc1F)(C3)C2,inconclusive: 9.73%,
NC(=O)CC(NC(=O)Cc1ccc(Br)cc1)c1ccc(N2CCC(Cc3ccccc3)CC2)c([N+](=O)[O-])c1 (configuration not stated),inconclusive: -62.5%,
COc1ccc(CCN(C)C(=O)CNC(=O)c2ccc3c(c2)OCO3)cc1OC,inconclusive: -20.9%,
COc1ccc(Cl)cc1NC(=O)COC(=O)c1ccc(Cl)nc1,,"inconclusive: 2.06 µM [falling, partial curve, poor fit]"
Cc1ccc(C)c(N2CCN(C(=O)c3ccc(CSc4nc5ccncc5[nH]4)cc3)CC2)c1,inconclusive: 24.7%,
CSc1ccccc1OCc1cc(C(=O)N2CCN(c3ncccn3)CC2)no1,,"inconclusive: 0.116 µM [activator, full curve, poor fit]"
COc1ccc(N2C(=O)CC(c3ccc(OC(C)C)cc3)C2=O)cc1 (configuration not stated),inconclusive: 14.8%,
COc1ccc(/C=C2\CN(Cc3ccccc3)C/C(=C\c3ccc(OC)c(O)c3)C2=O)cc1O,inconclusive: -62.9%,
Cc1ccc(CNC(=O)C2CCC(CNc3c(N4CCC(C)CC4)c(=O)c3=O)CC2)cc1 (configuration not stated),,"inconclusive: 0.206 µM [falling, full curve]"
CCCn1c(N)c(C(=O)CSc2nnc(C)n2Cc2ccccc2)c(=O)n(C)c1=O,inconclusive: -31.4%,
O=C(OCC(=O)N1CCN(C(=O)c2ccco2)CC1)c1ccccc1OCc1ccccc1,inconclusive: 16.2%,
CN(C)c1nc(OCCNC(=O)Nc2ccccc2)nc(N2CCCCC2)n1,inconclusive: -8.77%,
Cn1c(CN2CCCC2)nc2cc(NC(=O)Nc3ccccc3)ccc21,inconclusive: -24.4%,
CCOC(=O)CCc1c(C(=O)OCC)[nH]c(CC)c1C(=O)OCc1ccccc1,,"inconclusive: 0.326 µM [rising, full curve]"
Cc1ccccc1NC(=O)NCC1CCN(c2ccc(S(=O)(=O)N3CCOCC3)cc2)CC1,,"inconclusive: 1.03 µM [activator, single point]"
O=C(CSc1ccc(-c2ccco2)nn1)NC1CCCC1,,"inconclusive: 4.61 µM [falling, single point]"
O=C(OCC(=O)c1ccc[nH]1)C1=COCCO1,inconclusive: -1.24%,
CC(=O)NC(=S)NNC(=O)C(c1ccccc1)c1ccccc1,inconclusive: -11.1%,
CCc1ccccc1NC(=O)C1CC(c2ccc(OC)cc2)=NO1 (configuration not stated),inconclusive: -13.5%,
O=C1CCCN1CC1CCCN(Cc2nc(COc3ccccc3)no2)C1 (configuration not stated),inconclusive: 32%,
CN(C(=O)COC(=O)Cc1c[nH]c2ccccc12)c1c(N)n(Cc2ccccc2)c(=O)[nH]c1=O,inconclusive: 3.31%,
OC1(c2cccc(C(F)(F)F)c2)CCN(c2ncnc3c2[nH]c2ccc(F)cc23)CC1,,"inconclusive: 10.3 µM [cytotoxic, partial curve]"

# For convenience, part of the list above:
SMILES,"lipid storage change, negative = inhibition",Potency
Cc1ccc(CNC(=O)C2CCC(CNc3c(N4CCC(C)CC4)c(=O)c3=O)CC2)cc1 (configuration not stated),,"inconclusive: 0.206 µM [falling, full curve]"
CCCn1c(N)c(C(=O)CSc2nnc(C)n2Cc2ccccc2)c(=O)n(C)c1=O,inconclusive: -31.4%,
O=C(OCC(=O)N1CCN(C(=O)c2ccco2)CC1)c1ccccc1OCc1ccccc1,inconclusive: 16.2%,
CN(C)c1nc(OCCNC(=O)Nc2ccccc2)nc(N2CCCCC2)n1,inconclusive: -8.77%,
Cn1c(CN2CCCC2)nc2cc(NC(=O)Nc3ccccc3)ccc21,inconclusive: -24.4%,
CCOC(=O)CCc1c(C(=O)OCC)[nH]c(CC)c1C(=O)OCc1ccccc1,,"inconclusive: 0.326 µM [rising, full curve]"
